Drawing on PMC10212922, “A blocking monoclonal antibody reveals dimerization of intracellular domains of ALK2 associated with genetic disorders” (Nature Communications, 2023), this text covers binding for 2 molecules.

The chains behind the UniProt entries cited, without tags or fusion partners. Residues count along the entry.
UniProt Q13705, residues 19-512: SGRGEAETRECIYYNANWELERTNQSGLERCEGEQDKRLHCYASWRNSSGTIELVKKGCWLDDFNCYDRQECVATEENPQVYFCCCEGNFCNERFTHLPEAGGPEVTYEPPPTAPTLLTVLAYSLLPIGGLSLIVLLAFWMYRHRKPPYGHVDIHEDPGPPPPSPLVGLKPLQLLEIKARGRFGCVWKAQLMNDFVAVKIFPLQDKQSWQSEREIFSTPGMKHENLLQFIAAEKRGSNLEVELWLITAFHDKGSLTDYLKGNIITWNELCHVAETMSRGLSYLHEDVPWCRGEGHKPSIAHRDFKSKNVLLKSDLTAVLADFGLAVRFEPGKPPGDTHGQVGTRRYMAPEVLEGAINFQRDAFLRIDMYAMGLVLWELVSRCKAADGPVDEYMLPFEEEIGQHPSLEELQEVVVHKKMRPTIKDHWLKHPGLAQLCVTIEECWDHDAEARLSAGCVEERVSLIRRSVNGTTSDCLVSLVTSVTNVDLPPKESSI

No constants are given. Whether binding was seen depends on the method and setting. In cells and extracts the contact can be indirect. Some binding calls cover weakened binding; strength is not graded here.

Assay [1] deals with ActR-IIB with LgBiT or SmBiT (NanoBiT) (UniProt Q13705). Nature of the assay: split reporter; ActR-IIB with LgBiT and with SmBiT in HEK293A cells; stimulated with activin A (Supplementary Fig. 5c).
Assay [2] has the same target. The experiment in a line: split reporter; ActR-IIB with LgBiT and with SmBiT in HEK293A cells; stimulated with BMP7 (Supplementary Fig. 5c).
Assay [3] has the same target. The experiment in a line: split reporter; ALK2 and ActR-IIB, one with LgBiT and one with SmBiT, in HEK293A cells; with BMP7 or activin A (Supplementary Fig. 5d).

As to “ActR-IIB with LgBiT or SmBiT (NanoBiT) (from UniProt Q13705 19-512) (receptor)”, the binding entry in assay [1] is given as “binds”; in assay [2] it was “no binding (condition: stimulated with BMP7)”.

B1: wild-type ALK2-LgBiT / ALK2-SmBiT (receptor, UniProt Q04771 21-509)
chain: MEDEKPKVNPKLYMCVCEGLSCGNEDHCEGQQCFSSLSINDGFHVYQKGCFQVYEQGKMTCKTPPSPGQAVECCQGDWCNRNITAQLPTKGKSFPGTQNFHLEVGLIILSVVFAVCLLACLLGVALRKFKRRNQERLNPRDVEYGTIEGLITTNVGDSTLADLLDHSCTSGSGSGLPFLVQRTVARQITLLECVGKGRYGEVWRGSWQGENVAVKIFSSRDEKSWFRETELYNTVMLRHENILGFIASDMTSRHSSTQLWLITHYHEMGSLYDYLQLTTLDTVSCLRIVLSIASGLAHLHIEIFGTQGKPAIAHRDLKSKNILVKKNGQCCIADLGLAVMHSQSTNQLDVGNNPRVGTKRYMAPEVLDETIQVDCFDSYKRVDIWAFGLVLWEVARRMVSNGIVEDYKPPFYDVVPNDPSFEDMRKVVCVDQQRPNIPNRWFSDPTLTSLAKLMKECWYQNPSARLTALRIKKTLTKIDNSLDKLKTDC
For the molecule B1, the binding entry in assay [3] was “binds”.
